Experimental data published in paper PMC3996652.

Amino acid sequences for entries named in this document (tags omitted). A change or cut given only in a name is not applied to a line headed by its entry.
UniProt O14920: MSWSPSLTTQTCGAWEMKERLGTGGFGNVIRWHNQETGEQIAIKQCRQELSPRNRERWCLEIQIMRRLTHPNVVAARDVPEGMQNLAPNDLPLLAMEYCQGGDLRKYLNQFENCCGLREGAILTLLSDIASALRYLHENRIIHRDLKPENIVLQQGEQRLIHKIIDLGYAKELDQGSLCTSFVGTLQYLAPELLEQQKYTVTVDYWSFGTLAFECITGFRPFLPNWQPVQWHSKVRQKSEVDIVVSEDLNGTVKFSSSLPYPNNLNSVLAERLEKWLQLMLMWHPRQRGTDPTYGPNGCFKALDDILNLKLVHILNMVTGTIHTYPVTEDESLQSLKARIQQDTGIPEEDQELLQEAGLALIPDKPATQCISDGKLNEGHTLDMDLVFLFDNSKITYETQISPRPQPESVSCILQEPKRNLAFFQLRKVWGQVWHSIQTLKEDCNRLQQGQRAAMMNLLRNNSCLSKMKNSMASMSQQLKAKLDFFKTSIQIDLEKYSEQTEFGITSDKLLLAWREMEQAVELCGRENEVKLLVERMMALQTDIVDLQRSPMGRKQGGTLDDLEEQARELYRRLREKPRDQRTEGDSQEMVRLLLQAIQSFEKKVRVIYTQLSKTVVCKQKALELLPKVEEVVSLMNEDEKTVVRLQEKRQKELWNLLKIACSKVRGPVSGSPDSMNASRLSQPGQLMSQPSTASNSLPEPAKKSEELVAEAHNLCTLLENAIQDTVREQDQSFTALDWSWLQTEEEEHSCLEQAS

Molecular target: T1, Myc-PHLPP2 (human) (UniProt Q6ZVD8)
T1 sequence: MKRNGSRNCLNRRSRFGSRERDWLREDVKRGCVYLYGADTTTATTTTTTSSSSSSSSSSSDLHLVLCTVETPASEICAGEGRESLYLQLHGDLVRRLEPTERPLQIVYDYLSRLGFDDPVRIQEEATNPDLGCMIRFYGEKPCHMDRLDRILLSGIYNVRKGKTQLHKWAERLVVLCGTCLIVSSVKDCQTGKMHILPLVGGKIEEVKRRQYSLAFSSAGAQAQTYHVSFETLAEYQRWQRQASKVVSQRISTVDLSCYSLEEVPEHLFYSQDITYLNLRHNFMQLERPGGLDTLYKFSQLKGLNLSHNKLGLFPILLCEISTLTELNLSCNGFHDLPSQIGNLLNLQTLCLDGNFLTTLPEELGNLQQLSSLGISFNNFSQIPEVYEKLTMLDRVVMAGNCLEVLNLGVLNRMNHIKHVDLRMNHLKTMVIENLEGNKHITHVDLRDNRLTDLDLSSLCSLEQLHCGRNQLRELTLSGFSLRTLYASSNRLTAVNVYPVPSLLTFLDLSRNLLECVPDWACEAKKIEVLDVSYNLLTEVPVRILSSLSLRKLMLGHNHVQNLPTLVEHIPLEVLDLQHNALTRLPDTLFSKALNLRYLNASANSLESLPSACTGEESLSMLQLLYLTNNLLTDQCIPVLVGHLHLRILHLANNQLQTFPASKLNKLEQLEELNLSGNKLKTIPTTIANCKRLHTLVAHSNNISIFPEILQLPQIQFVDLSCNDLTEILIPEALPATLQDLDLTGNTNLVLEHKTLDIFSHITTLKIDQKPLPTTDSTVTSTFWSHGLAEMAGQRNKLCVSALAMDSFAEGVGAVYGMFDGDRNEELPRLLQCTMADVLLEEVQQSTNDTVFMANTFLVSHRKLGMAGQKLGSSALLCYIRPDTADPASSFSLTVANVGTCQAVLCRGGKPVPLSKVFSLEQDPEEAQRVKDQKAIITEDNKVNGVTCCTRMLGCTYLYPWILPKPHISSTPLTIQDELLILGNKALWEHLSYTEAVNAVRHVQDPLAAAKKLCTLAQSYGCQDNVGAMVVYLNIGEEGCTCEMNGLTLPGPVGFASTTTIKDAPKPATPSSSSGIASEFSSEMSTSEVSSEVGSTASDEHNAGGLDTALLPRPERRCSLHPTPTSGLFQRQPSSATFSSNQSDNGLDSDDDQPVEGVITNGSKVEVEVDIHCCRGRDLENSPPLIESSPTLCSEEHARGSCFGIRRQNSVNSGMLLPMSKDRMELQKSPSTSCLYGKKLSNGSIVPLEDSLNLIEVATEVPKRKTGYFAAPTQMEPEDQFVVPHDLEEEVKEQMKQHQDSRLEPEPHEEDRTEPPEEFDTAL
Assay: co-IP; overexpressed proteins co-expressed in 293T cells, immunoprecipitation and immunoblot; in Fig. 4B increasing amounts of PHLPP2 or PHLPP2-PI

binding: binds
Substance: FLAG-tagged IKKβ kinase-dead (KD) (from UniProt O14920)

No constants are given. Whether binding was seen depends on the method and setting. In cells and extracts the contact can be indirect. A result given as binding can be weak or reduced; the word gives no strength. Where a sequence is shown, tags or fusion partners need not be part of it.
